Source: the supplement of paper PMC3334620
Over roughly 33,000 sequences, “E-score (-0.5 to 0.5)” has its median near -0.0014; the highest 2% begin near 0.25. The list shows a part of the results.

Each sequence was assayed against T1, Cad1 (UniProt P24813) (assay: PBM E-score (8-mer binding enrichment) (E-score (-0.5 to 0.5)); higher = stronger / more preferred TF binding). Details: protein concentration: 100 nM; construct: GST-full length.
T1 sequence: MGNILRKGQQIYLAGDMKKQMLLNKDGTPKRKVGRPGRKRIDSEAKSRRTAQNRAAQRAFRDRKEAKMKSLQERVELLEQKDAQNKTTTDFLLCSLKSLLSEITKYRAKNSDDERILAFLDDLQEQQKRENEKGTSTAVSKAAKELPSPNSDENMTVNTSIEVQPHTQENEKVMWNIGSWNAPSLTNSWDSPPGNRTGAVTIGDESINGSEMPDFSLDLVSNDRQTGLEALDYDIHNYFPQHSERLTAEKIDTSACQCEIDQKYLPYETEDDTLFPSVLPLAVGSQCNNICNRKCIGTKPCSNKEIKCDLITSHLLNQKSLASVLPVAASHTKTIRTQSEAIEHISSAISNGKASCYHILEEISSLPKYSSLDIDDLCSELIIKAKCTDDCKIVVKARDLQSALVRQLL
Outline: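 Detection of bound protein used fluorescent anti-GST, with scans normalised by masliner. The proteins were GST-tagged yeast transcription factors applied at about 100-200 nM to universal all-10-mer Agilent arrays made double-stranded by primer extension. Each ungapped eight-base word, pooled with its reverse complement, was scored with an E-score from the Universal PBM Analysis Suite.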

Point of comparison: CTGCGGCC, “PBM E-score” value -0.0204. Against it:
- AGCTAATG — higher, 0.00261
- CGAGACAA — lower, -0.0822
- ATACCTGC — lower, -0.104
- GCAGCGCA — lower, -0.0325
- CTTTATCA — higher, 0.0755
- CAAACAAG — higher, 0.0295
- GCATCTCA — lower, -0.147
- AAACGCCC — lower, -0.0692
- ATGCATCA — higher, 0.308
- CACAACTC — higher, 0.025
- ATACAAGG — higher, -0.00434
- AGCCAGCG — lower, -0.102
- CGGAGTGA — lower, -0.0795
- ACTCTCCT — lower, -0.214
- CAAAGGGG — lower, -0.147
- AGATTCAG — lower, -0.0525
- CCTAGGCC — lower, -0.215
- GCCGACGC — higher, 0.0286
- AATGTCAG — higher, 0.0422
- CAAAGATC — higher, 0.0193
- ACTCTCTA — lower, -0.108
- GACGACAC — higher, 0.056
- CAGATGAA — higher, 0.049
- AACAGCCG — lower, -0.169
- ACCGGCAA — higher, 0.0725
- AGTTTACC — lower, -0.0644
- ACAGCATA — higher, 0.151
- ACTGTGAA — higher, 0.0448
- CAAGGCGA — lower, -0.145
- CACTTGCA — higher, 0.108
- GGTGAGAA — lower, -0.0815
- ACTCGATC — higher, 0.0397
- CAGTTACG — lower, -0.142
- TCCAGAAA — lower, -0.125
- ATGCTATC — higher, 0.00232
- CTAAGTGA — higher, 0.146
- CTCCGGAG — lower, -0.105
- TTACATAA — higher, 0.438
- CACCCTTC — lower, -0.0857
- TCCGCGGA — higher, 0.311
- CAACAAAA — higher, 0.0393
- ACATTGAG — lower, -0.151
- GACTTAGA — lower, -0.122
- CCCGTAAC — lower, -0.0496
- TGAGGCAA — higher, 0.0278
- AGGAAACG — higher, 0.0331
- ACGGTCAG — lower, -0.157
- ACTCTATG — lower, -0.217
- GCATACGC — higher, -0.0165
- AGTCAAAT — higher, 0.103
- ATGATAGG — higher, 0.0278
- AGGGTCCA — lower, -0.264
- AGCAGTAA — higher, 0.029
- AGGGGCGA — lower, -0.253
- TTATTCAA — higher, 0.252
- GTGGTTTA — higher, 0.0435
- CAGAGCGA — higher, 0.083
- CCTCGCAA — lower, -0.259
- ACATCTAA — lower, -0.0207
- GCGCGCCA — higher, 0.206
- AACCCTCG — lower, -0.0276
- CTCCCGCC — lower, -0.163
- AGCAGAGG — lower, -0.0826
- ACGTTCTC — higher, 0.0667
- CGACCCAA — higher, 0.0259
- GAATTGTC — higher, -0.014
- ATCTGAGG — higher, 0.0679
- GGGGAACA — lower, -0.216
- CGCTTCAC — higher, 0.00567
- AGAGTAGG — lower, -0.0216
- ACTCTTGC — higher, 0.0522
- ATACCCGA — lower, -0.0679
- GTGGCCGA — lower, -0.0995
- AAACTGAG — lower, -0.0916
- AACGATCA — lower, -0.0458
- CAGTTAGC — lower, -0.27
- CACTCAGA — higher, 0.0813
- GTGGATTA — higher, 0.14
- AGCAGGAC — higher, 0.0392
- CCCCTGAC — higher, 0.00332
- AGTATTTC — higher, 0.14
- GATTCTCC — higher, 0.0061
- ATGACCGG — lower, -0.187
- TATGTGGA — higher, 0.146
- ACTCGAGC — higher, 0.0433
- TAGGAGAA — lower, -0.242
- AAATCGGT — higher, -0.00957
- AAACTCGT — higher, 0.172
- CCCTTCAA — lower, -0.201
- ACAGGGGC — lower, -0.0756
- AAGACAGT — higher, 0.0547
- AGTAGAAG — lower, -0.194
- CAGTGGTA — lower, -0.0283
- CCCCGAAC — lower, -0.119
- AGCTAGGA — lower, -0.126
- AACAGACT — higher, 0.0773
- GCACCCAC — higher, 0.0949
- AATCTGGG — lower, -0.106
- ATAAGCGG — higher, 0.0934
- AAGGGGAA — lower, -0.222
- CCCGTACC — lower, -0.113
- ACTAGGAT — lower, -0.0418
- AGTTGCCA — higher, 0.0449
- ACCATCCC — lower, -0.0594
- CTTCCCTA — lower, -0.158
- ACTCCAAA — lower, -0.141
- CTGGTAAC — higher, 0.0655
- CCTGTCGA — higher, -0.00186
- CACAGGGG — lower, -0.23
- CACTGTGC — higher, 0.17
- AATGACGG — lower, -0.0377
- AAAATGAG — higher, 0.0365
- TGCGAACA — higher, 0.0917
- GGGGAAGA — lower, -0.245
- ATCGCTAG — higher, 0.0309
- AGCCGCTC — higher, 0.00238
- ATATGCGG — higher, 0.0542
- CTCCTCGC — lower, -0.135
- AGATCCCT — lower, -0.312
- AACTCTAG — lower, -0.155
- AGGTCGGC — lower, -0.159
- CAAGTACC — lower, -0.138
- AGCGCCAT — lower, -0.118
- ACGGAGTG — higher, 0.114
- ACCCGTGA — lower, -0.116
- CACCTTCA — lower, -0.0601
- AGCCGCTG — lower, -0.0754
- AAGGAGGT — lower, -0.0875
- GGGACCCC — lower, -0.259
- ACCACACC — lower, -0.169
- CTGCTAAC — lower, -0.0938
- CAGAAACG — higher, 0.0935
- GCGTCACC — lower, -0.072
- CTGAAATA — higher, 0.00755
- AACCTTCC — lower, -0.131
- ATCGAAAA — higher, 0.0997
- CGGGCGCA — higher, 0.045
- GATGAAAC — lower, -0.0377
- AAAGTTTA — higher, 0.179
- TAATTACA — higher, 0.265
- AAACATGC — higher, 0.0769
- AGTAACGC — lower, -0.0372
- ATTAGCTG — higher, 0.102
- AAGGCCTG — lower, -0.0264
- AGCGAATG — lower, -0.13
- ACCATACG — lower, -0.054
- AGCGGGGC — lower, -0.0957
- GGTTTACA — lower, -0.0383
- ATCCAAAA — higher, 0.194
- GCTTCAGA — lower, -0.0942
- CCATAAGA — lower, -0.0777
- GAACTAGC — lower, -0.0799
- CTCATGAG — higher, 0.175
- CATTAAAG — higher, 0.145
- CGCCGGCG — higher, 0.301
- CGCTAGAC — lower, -0.117
- CTTAAAAC — higher, 0.108
- AATCGGGT — higher, 0.19
- ACAACACC — higher, 0.153
- GAAGTACC — higher, 0.0529
- GTCTCGCA — lower, -0.0655
- GAAATAGA — higher, 0.0442
- GGCCCCCC — lower, -0.399
- CAGTCGTA — lower, -0.162
- GTTCGCAA — higher, 0.19
- AATATCAG — higher, 0.18
- ACTATAGT — higher, 0.293
- CTGCGGGC — lower, -0.0688
- ACATAGGC — lower, -0.129
- CTTCTACC — lower, -0.142
- CCGATGTA — lower, -0.131
